Source: patent US20080071151A1
These are yes or no findings as the source states them, for the method shown. Some results given as binding are weak or reduced against the parent protein; the word gives no strength.

The chains behind the UniProt entries cited, without tags or fusion partners. Where a name states a change or a piece, a line headed by the entry shows the natural chain unless it says otherwise.
UniProt P17948: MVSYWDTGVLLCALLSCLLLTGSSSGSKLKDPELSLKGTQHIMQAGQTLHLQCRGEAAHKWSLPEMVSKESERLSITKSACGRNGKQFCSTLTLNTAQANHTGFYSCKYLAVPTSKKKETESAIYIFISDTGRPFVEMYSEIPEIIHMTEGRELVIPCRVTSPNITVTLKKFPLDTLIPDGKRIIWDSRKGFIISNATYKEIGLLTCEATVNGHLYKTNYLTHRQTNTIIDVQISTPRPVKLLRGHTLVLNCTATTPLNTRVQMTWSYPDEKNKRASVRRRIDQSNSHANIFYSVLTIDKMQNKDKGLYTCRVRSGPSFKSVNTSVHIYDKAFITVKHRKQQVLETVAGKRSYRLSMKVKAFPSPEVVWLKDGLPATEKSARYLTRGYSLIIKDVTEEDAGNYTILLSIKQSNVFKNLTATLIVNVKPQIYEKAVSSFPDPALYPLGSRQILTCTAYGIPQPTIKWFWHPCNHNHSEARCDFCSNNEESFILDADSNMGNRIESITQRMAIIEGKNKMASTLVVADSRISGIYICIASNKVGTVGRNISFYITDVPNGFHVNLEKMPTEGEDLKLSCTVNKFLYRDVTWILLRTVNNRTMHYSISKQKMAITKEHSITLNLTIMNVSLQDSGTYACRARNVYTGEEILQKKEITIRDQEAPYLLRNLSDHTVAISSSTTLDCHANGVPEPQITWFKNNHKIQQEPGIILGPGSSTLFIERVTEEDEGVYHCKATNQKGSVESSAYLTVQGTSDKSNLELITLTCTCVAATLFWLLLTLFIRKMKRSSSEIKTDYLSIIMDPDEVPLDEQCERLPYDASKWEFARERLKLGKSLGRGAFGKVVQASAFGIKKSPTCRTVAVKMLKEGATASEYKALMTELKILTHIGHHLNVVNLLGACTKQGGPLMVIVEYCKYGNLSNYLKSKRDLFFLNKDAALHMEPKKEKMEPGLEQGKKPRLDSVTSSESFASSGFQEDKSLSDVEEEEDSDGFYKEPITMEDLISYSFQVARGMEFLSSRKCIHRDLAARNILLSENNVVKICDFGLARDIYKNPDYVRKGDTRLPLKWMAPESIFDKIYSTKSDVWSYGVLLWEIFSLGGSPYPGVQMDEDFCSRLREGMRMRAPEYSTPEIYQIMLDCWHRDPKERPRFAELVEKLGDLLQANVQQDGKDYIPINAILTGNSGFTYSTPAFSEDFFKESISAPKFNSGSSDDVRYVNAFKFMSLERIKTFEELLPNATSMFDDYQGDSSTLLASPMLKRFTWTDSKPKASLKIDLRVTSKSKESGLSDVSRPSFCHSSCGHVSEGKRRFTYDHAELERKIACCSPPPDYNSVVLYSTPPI

Biological target: soluble fms-like tyrosine kinase 1 (sFlt-1) (human) (UniProt P17948)
Assay: chemiluminescent sandwich assay on paramagnetic particles; sFlt-1 captured by a monoclonal antibody and detected with PlGF-acridinium

- binding: binds
B1: PlGF conjugated to acridinium (ligand)
chain: LPAVPPQQWALSAGNGSSEVEVVPFQEVWGRSYCRALERLVDVVSEYPSEVEHMFSPSCVSLLRCTGCCGDENLHCVPVETANVTMQLLKIRSGDRPSYVELTFSQHVRCECRHSPGRQSPDMPGDFRADAPSFLPPRRSLPMLFRMEWGCALTGSQSAVWPSSPVPEEIPRMHPGRNGKKQQRKPLREKMKPERCGDAVPRR
modifications: conjugated to acridinium (site not stated)
